Test results: doi:10.1101/365460
No constants are given. Whether binding was seen depends on the method and setting. In cells and extracts the contact can be indirect. A yes stands for co-enrichment or nearness to the bait. Other partners may have been found. For some of these results: Tags and fused reporters may be left off the sequences shown.

Chains of the proteins cited; added tags and fusions are not shown.
UniProt Q9UI95: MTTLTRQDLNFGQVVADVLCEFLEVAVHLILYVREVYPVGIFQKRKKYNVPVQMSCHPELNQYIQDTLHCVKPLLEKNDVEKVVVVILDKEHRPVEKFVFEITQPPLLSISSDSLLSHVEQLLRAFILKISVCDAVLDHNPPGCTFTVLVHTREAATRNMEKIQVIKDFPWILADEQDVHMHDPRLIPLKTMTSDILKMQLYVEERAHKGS
UniProt Q16531: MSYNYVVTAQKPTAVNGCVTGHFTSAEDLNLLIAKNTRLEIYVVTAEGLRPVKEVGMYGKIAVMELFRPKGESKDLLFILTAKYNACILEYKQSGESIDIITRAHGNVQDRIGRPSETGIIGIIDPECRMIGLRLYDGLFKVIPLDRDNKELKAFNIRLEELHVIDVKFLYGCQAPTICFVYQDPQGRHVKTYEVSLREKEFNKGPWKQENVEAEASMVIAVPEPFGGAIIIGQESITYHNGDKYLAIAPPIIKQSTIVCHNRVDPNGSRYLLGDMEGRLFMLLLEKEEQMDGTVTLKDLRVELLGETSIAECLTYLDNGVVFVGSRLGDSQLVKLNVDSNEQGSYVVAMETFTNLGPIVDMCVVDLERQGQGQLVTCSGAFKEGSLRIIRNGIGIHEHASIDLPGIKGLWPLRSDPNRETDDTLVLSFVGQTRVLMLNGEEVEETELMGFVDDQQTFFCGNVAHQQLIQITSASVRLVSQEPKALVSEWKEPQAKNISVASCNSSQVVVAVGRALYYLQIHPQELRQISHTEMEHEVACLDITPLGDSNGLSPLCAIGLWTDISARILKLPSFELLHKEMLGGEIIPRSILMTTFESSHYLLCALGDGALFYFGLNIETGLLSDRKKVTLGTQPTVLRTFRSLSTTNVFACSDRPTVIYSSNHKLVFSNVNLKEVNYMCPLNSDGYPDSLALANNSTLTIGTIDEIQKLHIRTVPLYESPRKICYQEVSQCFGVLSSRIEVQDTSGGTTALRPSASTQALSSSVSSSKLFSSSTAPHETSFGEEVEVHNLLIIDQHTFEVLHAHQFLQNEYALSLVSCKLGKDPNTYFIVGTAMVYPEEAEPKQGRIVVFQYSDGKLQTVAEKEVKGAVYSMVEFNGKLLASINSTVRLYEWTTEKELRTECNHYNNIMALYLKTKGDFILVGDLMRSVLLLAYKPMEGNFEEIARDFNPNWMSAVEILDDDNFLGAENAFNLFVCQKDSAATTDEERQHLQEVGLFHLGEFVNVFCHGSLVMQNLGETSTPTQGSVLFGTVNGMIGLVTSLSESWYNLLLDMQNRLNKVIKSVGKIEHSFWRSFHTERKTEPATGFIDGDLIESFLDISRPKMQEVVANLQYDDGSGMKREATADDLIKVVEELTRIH
UniProt Q14258: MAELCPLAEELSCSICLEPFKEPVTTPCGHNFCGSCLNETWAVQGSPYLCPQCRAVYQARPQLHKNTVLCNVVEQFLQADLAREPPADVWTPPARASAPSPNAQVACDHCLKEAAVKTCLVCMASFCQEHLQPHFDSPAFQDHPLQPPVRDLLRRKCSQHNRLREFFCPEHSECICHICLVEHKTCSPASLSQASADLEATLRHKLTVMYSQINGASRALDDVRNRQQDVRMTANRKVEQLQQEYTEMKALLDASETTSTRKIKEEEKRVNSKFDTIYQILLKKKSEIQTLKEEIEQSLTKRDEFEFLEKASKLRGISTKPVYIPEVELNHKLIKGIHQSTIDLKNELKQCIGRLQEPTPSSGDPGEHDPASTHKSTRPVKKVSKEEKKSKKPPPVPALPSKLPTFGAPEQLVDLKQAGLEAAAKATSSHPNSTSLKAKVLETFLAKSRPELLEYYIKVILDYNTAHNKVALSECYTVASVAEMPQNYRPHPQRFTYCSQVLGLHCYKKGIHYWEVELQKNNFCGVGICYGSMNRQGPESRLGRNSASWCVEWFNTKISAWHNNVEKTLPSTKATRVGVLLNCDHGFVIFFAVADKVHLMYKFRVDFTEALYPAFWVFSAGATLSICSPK
UniProt Q13620: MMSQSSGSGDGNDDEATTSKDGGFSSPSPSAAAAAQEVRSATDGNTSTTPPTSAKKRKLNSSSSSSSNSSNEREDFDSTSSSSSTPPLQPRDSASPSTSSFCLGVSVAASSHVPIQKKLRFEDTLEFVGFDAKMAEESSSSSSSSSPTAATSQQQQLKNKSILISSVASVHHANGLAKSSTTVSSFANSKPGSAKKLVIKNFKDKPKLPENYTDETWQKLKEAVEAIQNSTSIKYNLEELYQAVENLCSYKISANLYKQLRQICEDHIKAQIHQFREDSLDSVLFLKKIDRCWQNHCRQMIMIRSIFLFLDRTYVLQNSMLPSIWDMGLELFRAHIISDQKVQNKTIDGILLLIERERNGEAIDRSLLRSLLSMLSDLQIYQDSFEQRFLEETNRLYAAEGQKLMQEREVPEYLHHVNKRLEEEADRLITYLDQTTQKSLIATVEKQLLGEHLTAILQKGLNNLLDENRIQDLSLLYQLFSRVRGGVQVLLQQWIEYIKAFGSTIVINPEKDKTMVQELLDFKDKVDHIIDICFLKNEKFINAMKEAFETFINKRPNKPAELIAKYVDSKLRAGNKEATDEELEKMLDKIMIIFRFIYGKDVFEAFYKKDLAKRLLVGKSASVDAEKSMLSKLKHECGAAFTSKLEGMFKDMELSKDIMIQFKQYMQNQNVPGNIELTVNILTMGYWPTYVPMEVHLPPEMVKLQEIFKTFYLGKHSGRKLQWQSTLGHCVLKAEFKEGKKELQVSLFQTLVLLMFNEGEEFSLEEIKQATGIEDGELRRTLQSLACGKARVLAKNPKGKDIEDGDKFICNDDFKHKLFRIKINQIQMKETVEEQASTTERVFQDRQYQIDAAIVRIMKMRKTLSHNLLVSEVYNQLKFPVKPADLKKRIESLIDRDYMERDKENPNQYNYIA
UniProt Q7L5N1: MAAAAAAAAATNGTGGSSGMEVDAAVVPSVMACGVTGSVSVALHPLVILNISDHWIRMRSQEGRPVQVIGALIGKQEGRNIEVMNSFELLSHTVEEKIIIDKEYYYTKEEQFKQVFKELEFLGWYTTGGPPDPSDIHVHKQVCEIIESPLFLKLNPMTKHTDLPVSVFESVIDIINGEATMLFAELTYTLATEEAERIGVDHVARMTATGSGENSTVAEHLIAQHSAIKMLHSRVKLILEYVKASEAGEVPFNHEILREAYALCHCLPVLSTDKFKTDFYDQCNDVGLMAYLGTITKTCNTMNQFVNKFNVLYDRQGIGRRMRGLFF

T1: FLAG-BirA*-FAM35A (human) (UniProt Q86V20)
T1 sequence: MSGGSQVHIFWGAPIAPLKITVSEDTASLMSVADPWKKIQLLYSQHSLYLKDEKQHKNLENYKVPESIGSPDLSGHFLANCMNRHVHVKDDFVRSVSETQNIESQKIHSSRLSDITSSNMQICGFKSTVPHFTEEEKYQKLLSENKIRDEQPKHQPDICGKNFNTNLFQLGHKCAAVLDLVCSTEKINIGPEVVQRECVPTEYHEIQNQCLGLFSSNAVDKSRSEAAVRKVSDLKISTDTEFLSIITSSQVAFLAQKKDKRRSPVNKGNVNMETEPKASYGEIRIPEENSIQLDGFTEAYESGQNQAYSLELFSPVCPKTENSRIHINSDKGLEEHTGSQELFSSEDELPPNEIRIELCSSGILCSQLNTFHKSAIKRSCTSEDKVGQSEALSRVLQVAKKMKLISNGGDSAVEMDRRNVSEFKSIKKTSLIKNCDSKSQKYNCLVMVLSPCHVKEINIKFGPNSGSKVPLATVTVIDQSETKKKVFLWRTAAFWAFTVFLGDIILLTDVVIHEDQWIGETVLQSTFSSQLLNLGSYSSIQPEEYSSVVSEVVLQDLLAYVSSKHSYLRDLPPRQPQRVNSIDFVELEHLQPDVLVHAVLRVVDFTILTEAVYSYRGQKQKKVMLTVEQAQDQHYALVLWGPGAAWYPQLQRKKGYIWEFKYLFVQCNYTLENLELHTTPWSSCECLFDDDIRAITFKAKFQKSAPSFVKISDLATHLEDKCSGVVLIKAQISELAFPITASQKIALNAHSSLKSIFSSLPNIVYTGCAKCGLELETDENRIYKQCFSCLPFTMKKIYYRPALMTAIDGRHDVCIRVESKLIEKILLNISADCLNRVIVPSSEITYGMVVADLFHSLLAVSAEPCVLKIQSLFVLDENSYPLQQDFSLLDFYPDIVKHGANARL


Tests used:
[1] = molecular target: T1, FLAG-BirA*-FAM35A (human); assay: proximity labelling
Flag-REV7 (human) = Flag-REV7 (human) (UniProt Q9UI95); assay: affinity purification with mass spectrometry
FLAG-BirA*-REV7 (human) = FLAG-BirA*-REV7 (human) (UniProt Q9UI95); assay: proximity labelling

Row | binding [1] | binding (Flag-REV7 (human)) | binding (FLAG-BirA*-REV7 (human)) | Molecule
1 | binds | – | – | DDB1 (from UniProt Q16531 1-1140)
2 | binds | – | – | E3 Ubiquitin ligase TRIM25 (from UniProt Q14258 1-630)
3 | binds | – | – | REV7 (from UniProt Q9UI95 1-211)
4 | binds | – | – | CUL4B (from UniProt Q13620 1-913)
5 | binds | – | – | COPS6 (from UniProt Q7L5N1 1-327)
6 | binds | – | – | COPS4 (from UniProt Q9BT78 1-406)
7 | – | binds | binds | chromosome alignment-maintaining phosphoprotein (CHAMP1) (protein, UniProt Q96JM3 1-812) MEAFQELRKPSARLECDHCSFRGTDYENVQIHMGTIHPEFCDEMDAGGLGKMIFYQKSAKLFHCHKCFFTSKMYSNVYYHITSKHASPDKWNDKPKNQLNKETDPVKSPPLPEHQKIPCNSAEPKSIPALSMETQKLGSVLSPESPKPTPLTPLEPQKPGSVVSPELQTPLPSPEPSKPASVSSPEPPKSVPVCESQKLAPVPSPEPQKPAPVSPESVKATLSNPKPQKQSHFPETLGPPSASSPESPVLAASPEPWGPSPAASPESRKSARTTSPEPRKPSPSESPEPWKPFPAVSPEPRRPAPAVSPGSWKPGPPGSPRPWKSNPSASSGPWKPAKPAPSVSPGPWKPIPSVSPGPWKPTPSVSSASWKSSSVSPSSWKSPPASPESWKSGPPELRKTAPTLSPEHWKAVPPVSPELRKPGPPLSPEIRSPAGSPELRKPSGSPDLWKLSPDQRKTSPASLDFPESQKSSRGGSPDLWKSSFFIEPQKPVFPETRKPGPSGPSESPKAASDIWKPVLSIDTEPRKPALFPEPAKTAPPASPEARKRALFPEPRKHALFPELPKSALFSESQKAVELGDELQIDAIDDQKCDILVQEELLASPKKLLEDTLFPSSKKLKKDNQESSDAELSSSEYIKTDLDAMDIKGQESSSDQEQVDVESIDFSKENKMDMTSPEQSRNVLQFTEEKEAFISEEEIAKYMKRGKGKYYCKICCCRAMKKGAVLHHLVNKHNVHSPYKCTICGKAFLLESLLKNHVAAHGQSLLKCPRCNFESNFPRGFKKHLTHCQSRHNEEANKKLMEALEPPLEEQQI
8 | – | binds | binds | FAM35A (protein, UniProt Q86V20-2 1-904) MSGGSQVHIFWGAPIAPLKITVSEDTASLMSVADPWKKIQLLYSQHSLYLKDEKQHKNLENYKVPESIGSPDLSGHFLANCMNRHVHVKDDFVRSVSETQNIESQKIHSSRLSDITSSNMQICGFKSTVPHFTEEEKYQKLLSENKIRDEQPKHQPDICGKNFNTNLFQLGHKCAAVLDLVCSTEKINIGPEVVQRECVPTEYHEIQNQCLGLFSSNAVDKSRSEAAVRKVSDLKISTDTEFLSIITSSQVAFLAQKKDKRRSPVNKGNVNMETEPKASYGEIRIPEENSIQLDGFTEAYESGQNQAYSLELFSPVCPKTENSRIHINSDKGLEEHTGSQELFSSEDELPPNEIRIELCSSGILCSQLNTFHKSAIKRSCTSEDKVGQSEALSRVLQVAKKMKLISNGGDSAVEMDRRNVSEFKSIKKTSLIKNCDSKSQKYNCLVMVLSPCHVKEINIKFGPNSGSKVPLATVTVIDQSETKKKVFLWRTAAFWAFTVFLGDIILLTDVVIHEDQWIGETVLQSTFSSQLLNLGSYSSIQPEEYSSVVSEVVLQDLLAYVSSKHSYLRDLPPRQPQRVNSIDFVELEHLQPDVLVHAVLRVVDFTILTEAVYSYRGQKQKKVMLTVEQAQDQHYALVLWGPGAAWYPQLQRKKGYIWEFKYLFVQCNYTLENLELHTTPWSSCECLFDDDIRAITFKAKFQKSAPSFVKISDLATHLEDKCSGVVLIKAQISELAFPITASQKIALNAHSSLKSIFSSLPNIVYTGCAKCGLELETDENRIYKQCFSCLPFTMKKIYYRPALMTAIDGRHDVCIRVESKLIEKILLNISADCLNRVIVPSSEITYGMVVADLFHSLLAVSAEPCVLKIQSLFVLDENSYPLQQDFSLLDFYPDIVKHGANARL
